# Source: PubChem BioAssay AID590 (National Center for Advancing Translational Sciences (NCATS), 2007)
# About 6,500 (11%) of roughly 59,000 compounds were called active. This list was built around the results that the source calls inconclusive (neither active nor inactive); the mix of calls is not that of the screen. No stated cut-off is given here; in the data, active means max dye-equivalent concentration above about 10 nM; inconclusive means mostly about 1.1 nM to 9.6 nM; inactive means weaker than that.
# Experiment: qHTS Assay for Spectroscopic Profiling in A350 Spectral Region
# Settings: Compound autofluorescence, 340/450 nm, Alexa 350 dye-equivalents; hits give high values
row,SMILES,max dye-equivalent concentration
1,COCCNC(=O)NC1(C(F)(F)F)Oc2ccc(Cl)cc2O1 (stereo unspecified),inconclusive: 1.8 nM
2,C/C(Cl)=C\Cn1c(NCCCn2ccnc2)nc2c1c(=O)n(C)c(=O)n2C,active: 17 nM
3,COc1ccc(Cn2nnnc2C(c2cc3cc(C)ccc3[nH]c2=O)N2CCOCC2)cc1 (stereo unspecified),active: 70 nM
4,O=C1SC(SCc2ccccc2)=N/C1=C\c1ccco1,inactive
5,CC1CC(C)(C)CC2(C1)NC(=O)N(CC(=O)NCC(c1ccco1)N1CCCCC1)C2=O (stereo unspecified),inconclusive: 5.6 nM
6,CCC(OC(=O)c1cc2sccc2n1C)C(=O)NCc1ccco1 (stereo unspecified),inactive
7,O=c1c(-c2cc(F)cc(F)c2)nc2cnc(N3CCNCC3)nc2n1-c1ccccc1,active: 100 nM
8,CCc1ccc(CCC(=O)Nc2nnc(C)s2)o1,inconclusive: 2.2 nM
9,Cc1ccc2nc3c(c(C(=O)O)c2c1)CCC3,inconclusive: 8.6 nM
10,Cc1cnc(CNc2cc(-c3c(C)noc3C)ncn2)cn1,active: 22 nM
11,CC(C)C1Oc2ccccc2N(CC(=O)NCCCN2C(C)CCCC2C)C1=O (stereo unspecified),inactive
12,CCOc1ccc(-n2cc(C(=O)Nc3cccc(C)n3)c3cc(OC)c(OC)cc3c2=O)cc1,inactive
13,COc1ccc(N2CC(O)=C(c3nc4ccccc4s3)C2=N)cc1,inconclusive: 4.8 nM
14,COc1cccc(-c2nc(-c3ccc(NC(=O)c4cccnc4)cc3)no2)c1,inactive
15,O=C(O)[C@@H](Br)[C@@H](Br)c1ccccc1[N+](=O)[O-],inactive
16,CC1(C)CC(=O)C=C(NCc2ccco2)C1,inconclusive: 2.4 nM
17,O=C(O)CCc1ccc(-c2ccccc2)n1-c1cccc(O)c1,inconclusive: 4.8 nM
18,CC1(C)CC(=O)C(C2(O)C(=O)N(Cc3ccccc3)c3ccccc32)CO1 (stereo unspecified),inactive
19,Cc1cc(NC(=O)Nc2cccs2)no1,inactive
20,COc1ccc(S(=O)(=O)N(Cc2ccc(OC)c(OC)c2)Cc2ccco2)cc1,active: 10 nM
21,OCn1ncn(-c2ccccc2)c1=S,inactive
22,COc1ccc(CN2C(=O)NC3(CCCCCC3)C2=O)cc1F,inactive
23,Cc1ccc(S(=O)(=O)Cn2cnnn2)cc1,inconclusive: 1.1 nM

row,SMILES,max dye-equivalent concentration
1,CCN(CC)CCN(Cc1cc2cc3c(cc2[nH]c1=O)OCCO3)C(=O)NC1CCCCC1,active: 240 nM
2,CCOC(=O)c1cc2occc2n1CC(=O)N1CCCc2ccccc21,inactive
3,COc1ccc(-n2c(=O)cnc3cnc(N4CCNCC4)nc32)cc1,inconclusive: 7.6 nM
4,CCCCOC(=O)n1c(=O)oc2cc(S(=O)(=O)N3CCCCC3)ccc21,inactive
5,CC(C)OCCCNC(=O)Cn1nc(-c2ccccc2)ccc1=O,inactive
6,C[C@@H](CNC(N)=O)NC(N)=O,inactive
7,CCOC(=O)C1CCCN(c2nc3ccccc3nc2C(C#N)C(=O)OCC)C1 (stereo unspecified),active: 54 nM
8,CCOc1ncccc1C(=O)OCc1cn2cc(Cl)ccc2n1,inconclusive: 1.9 nM
9,CC(C)c1nc2ccccc2c2nnc(SCC(=O)NCc3ccco3)n12,inconclusive: 1.1 nM
10,Brc1cccc(-c2nnc3n2CCCCC3)c1,active: 16 nM
11,CN(C)C(=O)Cn1nc(-c2ccccc2)c2ccccc2c1=O,inconclusive: 1.8 nM
12,COC(=O)c1cc(OC)c(OC)cc1NC(=O)CC1CCCCC1,active: 12 nM
13,CCSc1nnc(NC(=O)c2cc(C)on2)s1,inconclusive: 5.3 nM
14,CC(=O)[C@@H]1[C@H]2[C@@H](C(=O)[C@H]3OC[C@H]2O3)[C@@H]2C=Cc3ccccc3N12,inconclusive: 6.8 nM
15,O=C(Nc1cccnc1)Nc1ccccc1Cl,inconclusive: 1.7 nM
16,COc1cc(OC)c2c(C)cc(=O)oc2c1,active: 270 nM
17,O=C(NCc1ccccc1)N(Cc1nc2ccccc2c(=O)[nH]1)C1CCCC1,active: 100 nM
18,COc1ccc(CNc2ncncc2-c2ccccc2CN(C)C)c(OC)c1,inconclusive: 2.4 nM
19,CC1CC(C)CN(c2oc(-c3ccco3)nc2C#N)C1 (stereo unspecified),active: 21 nM
20,CCC12CN3CC(CC)(CN(C1)C3c1ccc(OC(C)C)cc1)C2=O (stereo unspecified),inactive
21,CCn1c(CSc2nc(C)cc(C)n2)nnc1SCC(=O)Nc1ccccc1,active: 17 nM
22,Cn1c(=O)c2c(-c3ccccc3)n(N3CCOCC3)cc2n(C)c1=O,inconclusive: 4.9 nM
23,Cc1cc(C)c2c(N=CN(C)C)c(C(=O)N3CCN(c4ncccn4)CC3)sc2n1,inconclusive: 5.7 nM

# Four compounds already listed, arranged by SMILES length, ascending:
row,SMILES,max dye-equivalent concentration
5,CC(C)OCCCNC(=O)Cn1nc(-c2ccccc2)ccc1=O,inactive
18,COc1ccc(CNc2ncncc2-c2ccccc2CN(C)C)c(OC)c1,inconclusive: 2.4 nM
21,CCn1c(CSc2nc(C)cc(C)n2)nnc1SCC(=O)Nc1ccccc1,active: 17 nM
22,Cn1c(=O)c2c(-c3ccccc3)n(N3CCOCC3)cc2n(C)c1=O,inconclusive: 4.9 nM
